Reference: patent US20220242945A1 (SORRISO PHARMACEUTICALS, published 2022)
Results are given in words; binding and its absence hold for the method and conditions named. Some binding calls cover weakened binding; strength is not graded here.

The chains behind the UniProt entries cited, without tags or fusion partners. Residues count along the entry.
UniProt P01375, residues 77-233: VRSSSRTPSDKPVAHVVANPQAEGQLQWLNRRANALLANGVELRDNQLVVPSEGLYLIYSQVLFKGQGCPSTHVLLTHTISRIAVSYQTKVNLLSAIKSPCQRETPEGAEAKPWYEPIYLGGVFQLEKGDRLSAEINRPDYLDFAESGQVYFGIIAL

Assays:
human TNFα [1] = molecular target: T1, human TNFα (human, UniProt P01375 77-233); test: competition ELISA on coated human TNFα; competitor 2 nM biotinylated adalimumab
T1 construct: also called TNF-alpha

recombinant human IL-23 = molecular target: T2, recombinant human IL-23 (human, UniProt Q9NPF7 20-189; P29460 23-328); test: IL-23-IL-23R neutralisation ELISA (sheet title 'IL-23 IL23R ELISA'); trypsin-cleaved construct blocks binding of IL-23 to IL-23R; A450
T2 construct: Heterodimer of p19 and p40; also called hIL-23; interleukin-23; not shown: single C-terminal 6xHis tag
T2 sequence 1: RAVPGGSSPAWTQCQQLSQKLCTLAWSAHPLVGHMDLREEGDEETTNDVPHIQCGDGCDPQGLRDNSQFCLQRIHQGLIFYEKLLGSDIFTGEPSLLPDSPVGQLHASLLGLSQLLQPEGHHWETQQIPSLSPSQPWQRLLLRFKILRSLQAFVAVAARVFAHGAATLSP
T2 sequence 2: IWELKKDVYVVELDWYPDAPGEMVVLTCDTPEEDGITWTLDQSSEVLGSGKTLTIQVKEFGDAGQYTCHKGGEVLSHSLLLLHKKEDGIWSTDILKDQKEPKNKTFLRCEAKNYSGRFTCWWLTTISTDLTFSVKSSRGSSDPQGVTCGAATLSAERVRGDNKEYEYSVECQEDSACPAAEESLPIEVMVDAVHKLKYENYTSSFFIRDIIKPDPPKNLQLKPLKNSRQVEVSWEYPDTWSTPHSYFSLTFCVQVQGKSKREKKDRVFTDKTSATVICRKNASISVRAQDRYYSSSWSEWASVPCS

human TNFα [2] = molecular target: T1, human TNFα; test: competition ELISA on plate-coated human TNFα; competitor 2 nM biotinylated adalimumab, detected with ExtrAvidin-HRP, A450
Protocol: ELISA plates were coated with 100 ng/mL human TNFα in 250 μg/mL bovine serum albumin (BSA) in phosphate buffered saline (1×PBS) and blocked with 1% BSA in 1× PBS. […] Otherwise 1% BSA was used as an assay diluent.

Measured: binding

B1: FA1K trypsin (protein, not shown: small tags and cut ends)
VHH 1: DVQLVESGGGLVQPGGSLKLSCAASGFDFSSHWMYWVRQAPGKELEWLSEINTNGLITHYGDSVKGRFTVSRNNAANKMYLELTRLEPEDTALYYCARNQHGLNKGQGTQVTVSS
VHH 2: EVQLVESGGGQVQPGGSLSLSCESSVSIWSFKVMGWFRQVPGKQRELVATITTGGSPDYSDSVKGRFTISRDYDKRTLYLQMNSLKPEDTAVYYCAGRLWAHITSSGHDVWGQGTQVTVSS
binds: all assays above
